Results as given in doi:10.1101/2024.02.25.581915.
No constants are given. Whether binding was seen depends on the method and setting. Binding seen in cells or lysates may run through a third protein. Some entries that bind do so weakly or less than the wild type.

Chains of the proteins cited; added tags and fusions are not shown.
UniProt P60896, whole entry: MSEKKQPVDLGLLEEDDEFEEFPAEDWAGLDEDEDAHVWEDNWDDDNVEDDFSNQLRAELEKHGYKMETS
UniProt Q68E01, whole entry: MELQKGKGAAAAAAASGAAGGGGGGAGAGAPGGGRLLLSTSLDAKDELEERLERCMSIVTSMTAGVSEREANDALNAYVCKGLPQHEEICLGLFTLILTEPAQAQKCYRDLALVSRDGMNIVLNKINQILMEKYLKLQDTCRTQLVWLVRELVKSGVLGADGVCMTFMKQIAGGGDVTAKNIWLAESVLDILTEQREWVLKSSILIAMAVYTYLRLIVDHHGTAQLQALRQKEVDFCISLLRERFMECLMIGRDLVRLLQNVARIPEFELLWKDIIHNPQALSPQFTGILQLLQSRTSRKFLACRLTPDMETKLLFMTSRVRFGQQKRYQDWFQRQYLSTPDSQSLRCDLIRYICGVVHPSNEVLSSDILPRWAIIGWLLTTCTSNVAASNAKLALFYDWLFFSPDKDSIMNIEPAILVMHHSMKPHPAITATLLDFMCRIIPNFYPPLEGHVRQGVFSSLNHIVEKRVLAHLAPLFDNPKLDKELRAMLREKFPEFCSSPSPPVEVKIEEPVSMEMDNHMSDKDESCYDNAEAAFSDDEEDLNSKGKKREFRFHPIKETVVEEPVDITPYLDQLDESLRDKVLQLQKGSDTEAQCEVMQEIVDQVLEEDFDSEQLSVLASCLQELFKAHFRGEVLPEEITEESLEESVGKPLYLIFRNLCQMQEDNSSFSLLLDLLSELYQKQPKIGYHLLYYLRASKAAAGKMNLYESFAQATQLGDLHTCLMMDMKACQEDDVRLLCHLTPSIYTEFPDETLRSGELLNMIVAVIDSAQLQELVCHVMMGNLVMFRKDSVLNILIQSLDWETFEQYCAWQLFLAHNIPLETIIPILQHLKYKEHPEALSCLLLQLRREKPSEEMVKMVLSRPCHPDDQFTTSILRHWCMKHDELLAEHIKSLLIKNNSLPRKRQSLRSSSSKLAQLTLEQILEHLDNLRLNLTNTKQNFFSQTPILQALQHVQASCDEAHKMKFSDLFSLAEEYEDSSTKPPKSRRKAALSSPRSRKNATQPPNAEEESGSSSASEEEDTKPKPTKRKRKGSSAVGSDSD
UniProt Q6P9B9, whole entry: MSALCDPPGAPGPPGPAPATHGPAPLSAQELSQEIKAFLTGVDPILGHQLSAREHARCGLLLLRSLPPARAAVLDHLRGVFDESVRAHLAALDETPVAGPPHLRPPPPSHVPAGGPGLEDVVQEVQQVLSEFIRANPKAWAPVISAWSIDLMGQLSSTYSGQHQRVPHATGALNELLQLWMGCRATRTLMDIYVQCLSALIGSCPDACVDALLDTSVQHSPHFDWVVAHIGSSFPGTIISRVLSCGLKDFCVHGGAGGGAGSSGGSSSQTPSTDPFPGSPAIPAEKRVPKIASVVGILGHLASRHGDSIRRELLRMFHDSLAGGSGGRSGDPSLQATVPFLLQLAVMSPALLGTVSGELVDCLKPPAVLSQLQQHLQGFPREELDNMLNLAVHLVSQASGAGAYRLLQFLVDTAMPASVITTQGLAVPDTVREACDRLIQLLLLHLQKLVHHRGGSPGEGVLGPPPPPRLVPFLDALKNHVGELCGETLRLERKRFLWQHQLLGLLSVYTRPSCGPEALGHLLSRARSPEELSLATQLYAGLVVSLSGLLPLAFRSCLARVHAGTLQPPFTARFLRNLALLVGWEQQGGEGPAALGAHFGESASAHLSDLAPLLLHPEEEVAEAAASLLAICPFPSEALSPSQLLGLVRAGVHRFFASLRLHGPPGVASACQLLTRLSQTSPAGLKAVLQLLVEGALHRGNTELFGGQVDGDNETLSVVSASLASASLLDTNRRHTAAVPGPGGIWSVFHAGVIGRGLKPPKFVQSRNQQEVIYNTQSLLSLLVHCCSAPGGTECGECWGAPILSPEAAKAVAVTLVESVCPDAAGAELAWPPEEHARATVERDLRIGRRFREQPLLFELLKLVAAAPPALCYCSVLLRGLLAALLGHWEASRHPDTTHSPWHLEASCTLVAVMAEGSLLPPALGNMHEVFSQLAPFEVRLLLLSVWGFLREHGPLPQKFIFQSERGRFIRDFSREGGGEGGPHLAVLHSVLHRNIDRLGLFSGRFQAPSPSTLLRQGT
UniProt O00487, whole entry: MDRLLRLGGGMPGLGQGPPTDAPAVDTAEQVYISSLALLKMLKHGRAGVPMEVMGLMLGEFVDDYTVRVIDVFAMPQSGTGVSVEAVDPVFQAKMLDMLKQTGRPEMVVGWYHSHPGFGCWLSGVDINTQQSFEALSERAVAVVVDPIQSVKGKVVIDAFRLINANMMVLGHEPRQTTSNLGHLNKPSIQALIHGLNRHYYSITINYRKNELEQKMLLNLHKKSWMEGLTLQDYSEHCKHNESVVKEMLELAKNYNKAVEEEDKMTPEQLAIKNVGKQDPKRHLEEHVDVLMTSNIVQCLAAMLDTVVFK
UniProt P55036, whole entry: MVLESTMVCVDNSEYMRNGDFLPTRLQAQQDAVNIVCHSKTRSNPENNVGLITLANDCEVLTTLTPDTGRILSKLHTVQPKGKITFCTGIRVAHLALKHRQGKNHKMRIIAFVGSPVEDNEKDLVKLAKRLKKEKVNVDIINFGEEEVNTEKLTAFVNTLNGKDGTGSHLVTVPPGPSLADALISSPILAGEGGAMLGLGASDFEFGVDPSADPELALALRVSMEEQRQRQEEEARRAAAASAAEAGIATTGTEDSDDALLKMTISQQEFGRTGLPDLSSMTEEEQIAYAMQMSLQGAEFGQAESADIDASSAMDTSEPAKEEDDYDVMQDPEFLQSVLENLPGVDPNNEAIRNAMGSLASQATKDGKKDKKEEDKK

Key:
Test in all cases: co-IP
[1] = target: HA–GFP-tagged wild-type DSS1 (pLVX-DSS1-WT) (human) (UniProt P60896)
[2] = target: INTS3 (endogenous) (human (endogenous in DLD-1)) (UniProt Q68E01)
[3] = target: INTS5 (endogenous) (human (endogenous in DLD-1)) (UniProt Q6P9B9)

| binding [1] | binding [2] | binding [3] | Substance |
| --- | --- | --- | --- |
| binds |  |  | PSMD14 (26S proteasome subunit, endogenous) (from UniProt O00487 1-310) |
|  | binds | binds | DSS1–Flag–dTAG (endogenous DSS1 locus tagged in DLD-1 cells) (from UniProt P60896 1-70) |
| binds |  |  | PSMD4 (26S proteasome subunit, endogenous) (from UniProt P55036 1-377) |
